Record: PubChem BioAssay AID743121 (NCATS, 2013)
Shown is one part, drawn at random, of about 26,000 reagents tested. Over the whole deposit, 167 (0.63%) got an active call. 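Calls are per gene from RSA p-values that are not deposited; an individual active-marked siRNA can sensitise only weakly.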 Entries without a mark were called inactive. Not all columns of the deposit are shown.

- Test: 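Genes whose silencing strengthens cell killing by camptothecin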 (primary screen)
- Cells: MDA-MB-231 cells, a human breast cancer line
- Reagents: single siRNA against human genes, 20 nM siRNA (0.8 pmol per well)
- Timing: 120 h (drug added 48 h after transfection, read 72 h later)
- Conditions: camptothecin 20 nM (about EC30) for 72 h; vehicle 0.1% DMSO in parallel plates
- Read-out: 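Cell viability by ATP luminescence (CellTiter-Glo) as % of non-targeting siRNA wells, and the log2 ratio of viability without drug over viability with camptothecin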
- Direction: log2 vehicle/camptothecin viability: higher = stronger sensitisation to camptothecin; viability with camptothecin: higher = more viable cells
- Active means: 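Active genes have an RSA gene-level p-value below 0.001, computed from the ratios of their separate siRNAs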

no.	target	PubChem SID	log2 vehicle/camptothecin viability	viability with camptothecin (% of control)
1	MRTO4	SID164472270	0.0445	61.8
2	MRTO4	SID164472272	-0.175	80.8
3	MRTO4	SID164472274	-0.329	59.8
4	MRTO4	SID164472276	0.281	56.3
5	HADHA	SID164368490	0.132	97.7
6	HADHA	SID164368491	-0.0622	88.2
7	HADHA	SID164368492	-0.301	73.1
8	HADHA	SID164368493	0.0326	54.2
9	GFI1	SID164366404	0.692	33.1
10	GFI1	SID164366406	0.0313	95.6
11	GFI1	SID164366407	-0.113	104
12	GFI1	SID164366408	-0.134	89
13	OLFML2B	SID164457654	0.164	85.4
14	OLFML2B	SID164457655	0.119	81
15	OLFML2B	SID164457657	-0.483	62.2
16	OLFML2B	SID164457659	-0.301	98.7
17	PNLIPRP3	SID164565792	-0.202	14.6
18	PNLIPRP3	SID164565793	-0.0579	60.5
19	PNLIPRP3	SID164565795	-0.0121	75.4
20	PNLIPRP3	SID164565798	-0.158	95.9
21	RAB28	SID164403328	-0.183	105
22	RAB28	SID164403329	-0.523	86.6
23	RAB28	SID164403332	-1.08	14.4
24	RAB28	SID164403333	0.297	73.7
25	LOC100134363 (retired record)	SID174316062	0.208	69.5
26	PLXNA1	SID164381300	0.0964	78.1
27	PLXNA1	SID164381301	-0.587	79.5
28	PLXNA1	SID164381304	0.663	40.1
29	PLXNA1	SID164381305	-0.205	70.6

Part of the list above, set out differently.
{"target": "HADHA", "PubChem SID": "SID164368491", "log2 vehicle/camptothecin viability": -0.0622, "viability with camptothecin (% of control)": 88.2}
{"target": "HADHA", "PubChem SID": "SID164368492", "log2 vehicle/camptothecin viability": -0.301, "viability with camptothecin (% of control)": 73.1}
{"target": "HADHA", "PubChem SID": "SID164368493", "log2 vehicle/camptothecin viability": 0.0326, "viability with camptothecin (% of control)": 54.2}
{"target": "GFI1", "PubChem SID": "SID164366404", "log2 vehicle/camptothecin viability": 0.692, "viability with camptothecin (% of control)": 33.1}
{"target": "GFI1", "PubChem SID": "SID164366406", "log2 vehicle/camptothecin viability": 0.0313, "viability with camptothecin (% of control)": 95.6}
{"target": "GFI1", "PubChem SID": "SID164366407", "log2 vehicle/camptothecin viability": -0.113, "viability with camptothecin (% of control)": 104}

The results go on:
no.	target	PubChem SID	log2 vehicle/camptothecin viability	viability with camptothecin (% of control)
30	TRAF3	SID164392610	0.264	53.9
31	TRAF3	SID164392613	0.0644	87.4
32	TRAF3	SID164392616	-0.261	75.4
33	TRAF3	SID164392617	-0.425	60.7
34	CHRNA9	SID164485269	-0.348	76.6
35	CHRNA9	SID164485270	-0.194	108
36	CHRNA9	SID164485271	-0.277	50.7
37	CHRNA9	SID164485273	0.173	66
38	CNGA4	SID164358983	0.0816	96.5
39	CNGA4	SID164358984	0.207	77.4
40	CNGA4	SID164358987	-0.19	61.9
41	CNGA4	SID164358988	-0.554	60.4
42	PTP4A1	SID164395526	0.0725	81.4
43	PTP4A1	SID164395527	-0.222	109
44	PTP4A1	SID164395529	-0.331	66.4
45	PTP4A1	SID164395530	-0.339	87.2
46	KMT2B	SID164406083	0.821	13.6
47	KMT2B	SID164406085	-0.0391	84.9
48	KMT2B	SID164406086	-0.469	61.7
49	KMT2B	SID164406088	-0.404	59.1
50	GABRR1	SID164365799	-0.0342	83.3
51	GABRR1	SID164365800	0.396	68.5
52	GABRR1	SID164365801	-0.0366	105
53	GABRR1	SID164365803	-0.26	78.3
54	PSMB8	SID164383385	0.226	34.4
55	PSMB8	SID164383386	0.00916	94.8
56	PSMB8	SID164383387	-0.236	84.5
57	PSMB8	SID164383389	-0.198	49.6
58	PKD1L1	SID164580184	-0.00218	73
59	PKD1L1	SID164580188	-0.329	114
60	PKD1L1	SID164580189	0.105	75.8
61	TNFRSF17	SID164355177	-0.0802	83.6
62	TNFRSF17	SID164355179	-0.239	131
63	TNFRSF17	SID164355180	-0.133	105
64	TNFRSF17	SID164355181	-0.503	68.2
65	MBTPS1	SID164399413	-0.306	99.5
66	MBTPS1	SID164399415	-0.00259	80.7
67	MBTPS1	SID164399418	0.386	67.1
68	MBTPS1	SID164399421	-0.0902	44.6
